# Screening data

From PubChem BioAssay record AID912 (NCATS, 2007).

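A cell-based FRET test of anthrax lethal toxin entry, tracked through the 460 nm emission signal; the cell line is not named here. Each compound was tested as a concentration series from about 0.0005 to 40 µM. The number is the fitted AC50 of the 460 nm signal alone; lower values mean a more potent effect. A falling signal goes with compounds filed as inhibitors or cytotoxic, a rising one with activators or fluorescent compounds (inferred from the filed classes).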

Values are in µM. Common to all entries: measured here: 460 nm channel. This is a side read-out of the assay, for part of the compounds, not drawn at random. A potency from a partial, single-point or poor curve is only a rough figure. The first word of each remark tells which way the curve ran; it can be opposite to the aim of the assay.

| SMILES | AC50 (µM) | curve as filed |
|---|---|---|
| `CCC1=C(C[C@H]2NCCc3ccccc32)C[C@@H]2c3cc(OC)c(OC)cc3CCN2C1` | 3.981 | falling, partial curve |
| `Cc1nnc(N(Cc2ccccc2)C(=O)c2cnccn2)s1` | 0.003162 | falling, full curve, poor fit |
| `COc1cccc(-c2cc(=O)c3ccccc3o2)c1N` | 12.59 | falling, partial curve |
| `COCCCN1C(=O)c2[nH]nc(-c3ccccc3O)c2C1c1ccc(Cl)cc1` (centres unmarked) | 0.007943 | falling, full curve, poor fit |
| `CCN1CCN(CCCOc2ccc(-c3ccccc3)cc2)CC1` | 0.01259 | falling, full curve |
| `CC1CCN(CCc2nc3cc(NS(=O)(=O)c4ccccc4)ccc3n2C)CC1` | 1.995 | falling, partial curve |
| `COc1ccc(C(=O)N2CCN(C(=O)c3ccco3)CC2)cc1OC` | 5.012 | rising, partial curve |
| `COc1ccc(CCNC2=NCCS2)cc1` | 31.62 | falling, partial curve, poor fit |
| `Cc1cccc(-c2cc3nc(C)cc(NCCCN(C)C)n3n2)c1` | 31.62 | falling, partial curve |
| `O=C(C1CCCN(S(=O)(=O)c2cccnc2)C1)N1CCN(c2ccccn2)CC1` (centres unmarked) | 12.59 | rising, partial curve |
| `CCc1ccccc1OCCCCN1CCCC1` | 3.162 | rising, single point |
| `Nc1nc(CSc2nc3ccccc3[nH]2)nc(N2CCOCC2)n1` | 3.981 | rising, single point |
| `CC(=O)O[C@H]1CC[C@@]2(C)[C@@H](CC[C@@]3(C)[C@H]2C(=O)C=C2[C@H]4C[C@](C)(C(=O)OCCN5CCCCC5)CC[C@]4(C)CC[C@@]23C)C1(C)C` | 0.01259 | rising, full curve, poor fit |
| `CCN1CCN(Cc2nc3c(c(=O)n(C)c(=O)n3C)n2CCCc2ccccc2)CC1` | 25.12 | falling, partial curve |
| `COC(=O)c1[nH]c(C)c(/C(O)=C2\C(=O)C(=O)N(CCN(C)C)C2c2cc(OC)ccc2OC)c1C` (centres unmarked) | 3.162 | falling, single point |
| `CC(=O)Oc1ccc(C(c2ccc(OC(C)=O)cc2)c2ccccn2)cc1` | 0.07943 | falling, full curve |
| `O=c1c(-c2ccc(Cl)cc2)nc2cnc(Nc3ccccc3)nc2n1C[C@H]1CCCO1` | 0.3981 | rising, full curve |
| `C=CCn1c(SCn2nnc3ccccc3c2=O)nnc1-c1ccc(Cl)cc1` | 10 | falling, partial curve |
| `Cc1cccc(NC(=O)C23CCC(C)(/C(=N/O)C2)C3(C)C)c1` (centres unmarked) | 25.12 | rising, single point |
| `O=C(CSc1nnc(Cn2c(=O)sc3ccccc32)n1CCc1ccccc1)N1CCOCC1` | 25.12 | rising, single point |
| `CCc1nnc(NC(=O)CSc2ncc(-c3ccccc3)n2CC)s1` | 0.1995 | rising, full curve, poor fit |
| `COCCn1nnnc1C(c1ccc(OC)cc1)N1CCC(C)CC1` (centres unmarked) | 0.01259 | falling, full curve |
| `O=C(O)c1ccccc1Nc1ccccc1` | 2.512 | rising, full curve, poor fit |
| `c1ccc(CCCN2CCN(CCOC(c3ccccc3)c3ccccc3)CC2)cc1` | 25.12 | falling, partial curve |
| `Cc1cc(NC(=O)CSc2nc(CCC3CCCC3)nc3ccccc23)no1` | 5.012 | rising, single point |
| `c1ccc2sc(SCc3ccc(-c4nnco4)cc3)nc2c1` | 6.31 | falling, partial curve |
| `O=C(c1cc(C(F)(F)F)cc(C(F)(F)F)c1)N1CCC2(CCCN(c3ncccn3)C2)CC1` | 10 | rising, single point |
| `C#C[C@]1(O)CC[C@@H]2[C@H]3CCC4=CCCC[C@@H]4[C@@H]3CC[C@@]21C` | 10 | falling, single point |
| `COc1ccc(-c2oc3ncn(CCN4CCOCC4)c(=N)c3c2-c2ccc(OC)cc2)cc1` | 3.162 | rising, single point |
| `CCc1nc2ccccc2n(CCOCCOCCn2c(=O)c(CC)nc3ccccc32)c1=O` | 5.012 | rising, single point |
| `COc1ccc(Oc2ncc3nc(CCc4ccccc4)c(=O)n(CCC#N)c3n2)cc1` | 10 | falling, single point |
| `CN(C)c1ccc(-c2ccc3ncnc(N(C)Cc4ccco4)c3c2)cc1` | 12.59 | falling, partial curve |
| `Nc1nc(-c2ccc(Br)s2)c(Br)s1` | 7.943 | falling, partial curve |
| `CCOC(=O)C1Cn2c(nc3c(c2=O)C(C)(CC)Cc2ccccc2-3)S1` (centres unmarked) | 10 | falling, partial curve |
| `CCN(CC)CCn1c(=S)[nH]c2cc3c(cc2c1=O)OCO3` | 0.003981 | falling, full curve, poor fit |
| `Cc1c(C(=O)NC2CCCCC2)oc2c1C(=O)CC(C)(C)C2` | 1.995 | falling, partial curve, poor fit |
| `CCCCCCC(C)n1[nH]c(=O)c2c(C)cc(=O)[nH]c21` (centres unmarked) | 10 | rising, partial curve |
| `CN(C)c1ncc2nc(-c3ccccc3)c(=O)n(Cc3ccc(F)cc3)c2n1` | 1 | rising, full curve |
| `COCc1[nH]nc2c1C1(C(=O)N(C)c3ccccc31)C(C#N)=C(N)O2` (centres unmarked) | 1.995 | falling, full curve |
| `Cc1ccc(Nc2nc(N)nc(CC#N)n2)cc1` | 5.012 | rising, partial curve |
| `Cc1ccc2c(c1)c1c3n2CCN(C(=O)CN2CCN(C)CC2)C3CCC1` (centres unmarked) | 31.62 | falling, single point |
| `COCC(=O)N1CCC2(CC1)CCN(c1ccc(-c3ccccc3)cc1)CC2` | 5.012 | rising, partial curve |
| `O=S1(=O)C=C(Sc2nnc(-c3ccccc3)o2)c2ccccc21` | 3.981 | falling, full curve |
| `C(=N\c1c(-c2ccccc2)nc2n1CCS2)/c1ccccc1` | 3.981 | falling, partial curve |

3 of the entries, repeated:

{"smiles": "Cc1ccc2c(c1)c1c3n2CCN(C(=O)CN2CCN(C)CC2)C3CCC1", "stereo": "centres unmarked", "AC50 (µM)": "31.62", "curve as filed": "falling, single point"}
{"smiles": "COc1ccc(C(=O)N2CCN(C(=O)c3ccco3)CC2)cc1OC", "AC50 (µM)": "5.012", "curve as filed": "rising, partial curve"}
{"smiles": "CC(=O)Oc1ccc(C(c2ccc(OC(C)=O)cc2)c2ccccn2)cc1", "AC50 (µM)": "0.07943", "curve as filed": "falling, full curve"}